Values from PubChem BioAssay AID504774 (Drosophila RNAi Screening Center, 2011)
Screen: 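Genes required for cells to withstand methyl methanesulphonate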 (primary screen). System: Drosophila Kc167 cells. Reagents: long dsRNA against Drosophila genes, about 0.25 µg dsRNA per well. Duration: about 6 days: 3 days knock-down, then 3 days with or without MMS. Challenge: methyl methanesulphonate 0.004% (w/v) for 3 days after knock-down. Read-out: 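Viability in wells given MMS, read as ATP luminescence, normalised by quantiles plate by plate and averaged across replicates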. Reading the numbers: mean viability with MMS and viability with MMS: higher = more surviving cells after MMS.
In all, the deposit lists about 23,000 reagents; shown is an unselected part of those that have a named target and a result. 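Values are quantile-normalised luminescence on an arbitrary scale; higher means more cells surviving MMS.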 A plus sign joins genes that one reagent is predicted to hit.

target gene	DRSC id	mean viability with MMS	viability with MMS, replicate 1	viability with MMS, replicate 2
Pus1 (GeneID 42440)	DRSC15548	3.64e6	4.03e6	4.22e6
Or65b (GeneID 318012)	DRSC08809	3.61e6	4.14e6	4.01e6
psq (GeneID 36118)	DRSC07668	2.77e6	3.49e6	3.49e6
psq (GeneID 36118)	DRSC23094	3.64e6	3.93e6	4.34e6
RNF220 (GeneID 42690)	DRSC15652	3.68e6	4.12e6	4.18e6
Jon25Biii (GeneID 33706)	DRSC03115	3.56e6	4.08e6	3.97e6
msopa (GeneID 45962)	DRSC11895	3.14e6	3.60e6	3.62e6
msopa (GeneID 45962)	DRSC23240	3.53e6	3.99e6	4.06e6
CG9541 (GeneID 34220)	DRSC03257	3.63e6	4.07e6	4.16e6
Prx6c (GeneID 36098)	DRSC06080	3.64e6	4.11e6	4.07e6
CG13634 (GeneID 42951)	DRSC14635	3.55e6	3.95e6	4.08e6
Usp32 (GeneID 40169)	DRSC10979	3.43e6	3.88e6	3.87e6
be (GeneID 32430)	DRSC19607	3.56e6	4.05e6	3.52e6
be (GeneID 32430)	DRSC19944	3.70e6	4.17e6	4.14e6
be (GeneID 32430)	DRSC19945	3.56e6	3.99e6	4.09e6
CG8010 (GeneID 32921)	DRSC20072	3.70e6	4.21e6	4.23e6
CG18636 (GeneID 2768923)	DRSC02685	3.44e6	3.87e6	3.93e6
Ant2 (GeneID 32008)	DRSC19330	3.54e6	4.14e6	3.98e6
yellow-g (GeneID 38294)	DRSC08575	3.64e6	4.11e6	4.11e6
CG7377 (GeneID 2768978)	DRSC10830	3.47e6	3.84e6	4.02e6
Diap1 (GeneID 39753)	DRSC11404	2.53e6	3.52e6	3.52e6
B52 (GeneID 41670)	DRSC14121	3.56e6	3.98e6	4.12e6
Lapsyn (GeneID 37418)	DRSC04249	3.89e6	4.21e6	4.49e6
CG14072 (GeneID 34513)	DRSC02375	3.79e6	4.10e6	4.50e6
CG15198 (GeneID 32065)	DRSC19645	3.54e6	3.92e6	4.09e6
CG15210 (GeneID 50323)	DRSC19656	3.83e6	4.33e6	4.27e6
CG5282 (GeneID 40256)	DRSC11775	3.53e6	3.99e6	4.01e6
Alg13 (GeneID 43443)	DRSC14864	3.62e6	4.10e6	4.15e6
CG5382 (GeneID 42618)	DRSC15786	3.63e6	4.14e6	4.07e6
slv (GeneID 35773)	DRSC07685	3.66e6	4.11e6	4.10e6
comt (GeneID 47091)	DRSC20319	3.36e6	3.84e6	3.81e6
OS9 + Hf	DRSC03392	3.51e6	3.93e6	4.02e6
Ugt35E1 (GeneID 53504)	DRSC15193	3.62e6	4.00e6	4.16e6
eIF2Bdelta (GeneID 37706)	DRSC04058	3.57e6	3.97e6	3.97e6
Ptpmeg2 (GeneID 31907)	DRSC18277	3.39e6	3.93e6	3.78e6
Ptpmeg2 (GeneID 31907)	DRSC18278	3.44e6	3.92e6	3.88e6
Ptpmeg2 (GeneID 31907)	DRSC23303	3.63e6	4.11e6	4.13e6
CG8135 + BBIP1	DRSC12739	3.50e6	4.00e6	3.96e6
CG8135 + BBIP1	DRSC16384	3.70e6	4.18e6	4.07e6
synr (GeneID 33702)	DRSC02369	3.67e6	4.20e6	4.07e6
ND-23 (GeneID 44207)	DRSC15526	3.44e6	3.90e6	3.91e6
CG12589 (GeneID 50157)	DRSC12215	3.20e6	3.62e6	3.65e6
cbt (GeneID 33224)	DRSC00655	3.60e6	4.06e6	4.12e6
mwh (GeneID 38131)	DRSC08382	3.61e6	4.17e6	3.98e6
CG5079 (GeneID 43089)	DRSC15713	3.01e6	3.61e6	3.64e6
CG5079 (GeneID 43089)	DRSC23061	3.63e6	4.02e6	4.22e6
tej (GeneID 36590)	DRSC07219	3.49e6	3.85e6	4.00e6
CG5880 (GeneID 43268)	DRSC15906	3.59e6	4.05e6	4.08e6
Cyt-c1L (GeneID 43457)	DRSC14860	3.50e6	3.84e6	4.06e6
Cyt-c1L (GeneID 43457)	DRSC22096	3.68e6	4.13e6	4.15e6
CG11060 (GeneID 35641)	DRSC06029	3.71e6	4.10e6	4.27e6
Cwc25 (GeneID 33460)	DRSC00545	3.24e6	3.66e6	3.60e6
CG31161 (GeneID 326123)	DRSC16144	3.50e6	4.08e6	3.83e6
RpL35 (GeneID 31483)	DRSC18347	3.12e6	3.51e6	3.63e6
Cyp4d14 (GeneID 45706)	DRSC18457	3.57e6	4.08e6	4.02e6
Ipk2 (GeneID 33236)	DRSC00357	3.62e6	3.99e6	4.24e6
mRpS11 (GeneID 42061)	DRSC15732	3.76e6	4.18e6	4.35e6
Cyp311a1 (GeneID 32170)	DRSC20239	3.58e6	3.96e6	4.14e6
Phm (GeneID 37823)	DRSC04639	3.63e6	4.20e6	4.03e6
Upf1 (GeneID 32153)	DRSC19667	3.52e6	3.88e6	4.07e6
CG1299 (GeneID 38496)	DRSC08300	3.57e6	4.00e6	4.09e6
Myt1 (GeneID 38649)	DRSC11228	3.32e6	3.74e6	3.72e6
CG4842 (GeneID 39817)	DRSC10453	3.51e6	3.93e6	4.04e6
CG32755 (GeneID 318192)	DRSC18397	3.48e6	3.96e6	3.94e6
CG5376 (GeneID 42648)	DRSC15782	3.34e6	3.86e6	3.76e6
CG42597 (GeneID 8674090)	DRSC03681	3.49e6	3.99e6	3.93e6
Pabp2 (GeneID 35788)	DRSC07501	2.83e6	3.57e6	3.57e6
caz (GeneID 32587)	DRSC20317	3.47e6	3.91e6	4.03e6
caz (GeneID 32587)	DRSC22594	3.39e6	3.88e6	3.92e6
caz (GeneID 32587)	DRSC23280	3.49e6	4.01e6	3.94e6

A stretch taken from the entries so far:
target gene	DRSC id	mean viability with MMS	viability with MMS, replicate 1	viability with MMS, replicate 2
msopa (GeneID 45962)	DRSC11895	3.14e6	3.60e6	3.62e6
msopa (GeneID 45962)	DRSC23240	3.53e6	3.99e6	4.06e6
CG9541 (GeneID 34220)	DRSC03257	3.63e6	4.07e6	4.16e6
Prx6c (GeneID 36098)	DRSC06080	3.64e6	4.11e6	4.07e6
CG13634 (GeneID 42951)	DRSC14635	3.55e6	3.95e6	4.08e6
Usp32 (GeneID 40169)	DRSC10979	3.43e6	3.88e6	3.87e6
be (GeneID 32430)	DRSC19607	3.56e6	4.05e6	3.52e6
